These results are taken from US20030119072A1.

Assay [1] addresses GST-WWP1.1. The experiment in a line: TRF (DELFIA) plate assay, GST-WW domain coated at 0-10 µg/mL, biotinylated peptide 30 µM.
The target in assay [2] is GST-WWP1.1. Put plainly: TRF (DELFIA) plate assay, GST-WW domain coated at 30 µg/mL, titrated with biotinylated peptide.

Results are given in words; binding and its absence hold for the method and conditions named. Some entries that bind do so weakly or less than the wild type.

On to HPGTPPPPYTVGPG (N-terminal Biotin-Ahx; C-terminal amide (CONH2)) [WBP1 PY motif peptide, Biotin-Ahx-…-CONH2], for which the binding result in assay [1] is “binds”. Regarding GPESPPPPYSRLSP (biotinylated (C6-linker and biotin tag)) [Smad6 PY motif peptide …], the binding entry in assay [2] is “binds”.

Take PADTPPPAYMPPDD (biotinylated (C6-linker and biotin tag)) [Smad5 PY motif peptide …]: the binding result in assay [2] is “binds”.
